Reference: article PMC3690481
Results are given in words; binding and its absence hold for the method and conditions named. Binding seen in cells or lysates may run through a third protein. Some results given as binding are weak or reduced against the parent protein; the word gives no strength.

Sequences of proteins named here, by UniProt entry; tags and fusion partners are left off.
UniProt Q9Y6K9: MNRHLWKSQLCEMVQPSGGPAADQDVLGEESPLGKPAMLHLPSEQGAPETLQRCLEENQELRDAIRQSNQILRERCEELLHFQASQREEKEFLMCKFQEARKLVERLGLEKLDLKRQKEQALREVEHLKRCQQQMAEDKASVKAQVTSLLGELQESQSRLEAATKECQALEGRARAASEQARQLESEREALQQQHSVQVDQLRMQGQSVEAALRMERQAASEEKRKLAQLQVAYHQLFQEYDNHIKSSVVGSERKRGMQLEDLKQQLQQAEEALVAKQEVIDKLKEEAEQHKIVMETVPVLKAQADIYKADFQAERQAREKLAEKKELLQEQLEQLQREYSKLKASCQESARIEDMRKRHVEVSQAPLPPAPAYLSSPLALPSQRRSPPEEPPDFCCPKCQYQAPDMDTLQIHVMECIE

Biological target: GST-tagged NEMO wild-type (UniProt Q9Y6K9)
Assay: pull-down; GST-NEMO transfected with or without LUBAC into doxycycline-induced control or OTULIN-overexpressing T-REx 293 cells; lysate in PBS, 0.1% Triton X-100, 2 mM NEM on GSH sepharose overnight; western blot

binding: binds
B1: SHARPIN (transfected LUBAC component) (protein, UniProt Q9H0F6 1-387)
chain: MAPPAGGAAAAASDLGSAAVLLAVHAAVRPLGAGPDAEAQLRRLQLSADPERPGRFRLELLGAGPGAVNLEWPLESVSYTIRGPTQHELQPPPGGPGTLSLHFLNPQEAQRWAVLVRGATVEGQNGSKSNSPPALGPEACPVSLPSPPEASTLKGPPPEADLPRSPGNLTEREELAGSLARAIAGGDEKGAAQVAAVLAQHRVALSVQLQEACFPPGPIRLQVTLEDAASAASAASSAHVALQVHPHCTVAALQEQVFSELGFPPAVQRWVIGRCLCVPERSLASYGVRQDGDPAFLYLLSAPREAPATGPSPQHPQKMDGELGRLFPPSLGLPPGPQPAASSLPSPLQPSWSCPSCTFINAPDRPGCEMCSTQRPCTWDPLAAAST
